Measured values reported in PMC5760656.
These are yes or no findings as the source states them, for the method shown. Binding seen in cells or lysates may run through a third protein. Some binding calls cover weakened binding; strength is not graded here. Sequences can lack the tags named with a protein.

Chains of the proteins cited; added tags and fusions are not shown.
UniProt Q8CDG1: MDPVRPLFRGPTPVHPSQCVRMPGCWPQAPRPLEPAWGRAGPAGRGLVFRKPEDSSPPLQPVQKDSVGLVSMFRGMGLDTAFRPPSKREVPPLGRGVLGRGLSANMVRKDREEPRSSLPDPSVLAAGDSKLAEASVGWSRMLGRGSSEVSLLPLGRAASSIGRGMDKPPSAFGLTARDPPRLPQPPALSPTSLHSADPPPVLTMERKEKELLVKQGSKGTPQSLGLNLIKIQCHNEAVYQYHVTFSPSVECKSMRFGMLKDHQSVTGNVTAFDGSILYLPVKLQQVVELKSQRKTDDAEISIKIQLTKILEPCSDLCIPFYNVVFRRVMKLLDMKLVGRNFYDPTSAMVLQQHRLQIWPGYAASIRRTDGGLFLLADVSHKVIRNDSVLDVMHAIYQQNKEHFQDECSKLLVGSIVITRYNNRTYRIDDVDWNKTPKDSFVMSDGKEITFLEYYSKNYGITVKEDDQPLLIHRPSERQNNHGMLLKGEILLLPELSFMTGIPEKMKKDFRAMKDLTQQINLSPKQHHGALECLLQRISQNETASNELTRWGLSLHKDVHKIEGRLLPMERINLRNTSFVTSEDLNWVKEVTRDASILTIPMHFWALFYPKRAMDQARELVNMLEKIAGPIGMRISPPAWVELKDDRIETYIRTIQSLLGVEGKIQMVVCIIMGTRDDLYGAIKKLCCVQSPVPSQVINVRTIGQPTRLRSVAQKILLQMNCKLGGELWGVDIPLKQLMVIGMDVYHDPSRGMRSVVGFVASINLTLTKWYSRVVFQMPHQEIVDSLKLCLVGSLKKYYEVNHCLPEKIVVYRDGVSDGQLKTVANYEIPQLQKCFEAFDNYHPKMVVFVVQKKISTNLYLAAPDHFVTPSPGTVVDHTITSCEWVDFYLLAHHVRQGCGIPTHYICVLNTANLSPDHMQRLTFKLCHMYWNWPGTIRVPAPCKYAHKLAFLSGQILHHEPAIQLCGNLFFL
UniProt Q9JMB7: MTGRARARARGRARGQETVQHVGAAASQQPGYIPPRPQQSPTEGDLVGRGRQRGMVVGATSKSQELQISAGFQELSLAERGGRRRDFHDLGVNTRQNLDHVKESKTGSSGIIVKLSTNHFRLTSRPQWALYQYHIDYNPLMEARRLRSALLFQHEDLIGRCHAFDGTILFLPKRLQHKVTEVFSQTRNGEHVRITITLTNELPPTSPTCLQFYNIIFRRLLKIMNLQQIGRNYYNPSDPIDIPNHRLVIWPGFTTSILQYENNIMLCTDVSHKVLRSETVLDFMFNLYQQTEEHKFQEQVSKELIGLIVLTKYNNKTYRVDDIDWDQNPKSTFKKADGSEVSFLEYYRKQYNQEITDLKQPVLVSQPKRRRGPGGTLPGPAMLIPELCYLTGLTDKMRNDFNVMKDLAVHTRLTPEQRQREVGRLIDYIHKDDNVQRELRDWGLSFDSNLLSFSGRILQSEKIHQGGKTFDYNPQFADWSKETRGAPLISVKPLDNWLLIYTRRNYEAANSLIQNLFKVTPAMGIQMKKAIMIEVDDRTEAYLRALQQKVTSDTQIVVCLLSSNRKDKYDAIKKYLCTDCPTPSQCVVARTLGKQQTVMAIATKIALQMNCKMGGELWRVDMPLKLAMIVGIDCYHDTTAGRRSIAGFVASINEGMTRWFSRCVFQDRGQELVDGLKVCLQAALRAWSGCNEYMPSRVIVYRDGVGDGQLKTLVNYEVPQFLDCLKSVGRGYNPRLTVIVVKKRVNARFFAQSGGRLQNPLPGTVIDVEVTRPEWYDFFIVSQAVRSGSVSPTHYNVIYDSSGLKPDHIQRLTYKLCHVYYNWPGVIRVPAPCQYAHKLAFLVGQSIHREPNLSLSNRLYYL

Assays:
[1] = target: MILI (PIWIL2), FLAG-tagged (mouse) (UniProt Q8CDG1); test: co-IP; HEK293T cells co-transfected with GFP-TDRD5 and FLAG-MILI or FLAG-MIWI; 48 h after transfection immunoprecipitation with anti-FLAG M2 affinity gel; western blot with anti-GFP and anti-FLAG
[2] = target: MIWI (PIWIL1), FLAG-tagged (mouse) (UniProt Q9JMB7); test: as above

binding [1]: binds
binding [2]: binds
B1: Tudor domain-containing 5 (TDRD5) protein, GFP-tagged, full length (protein, UniProt Q5VCS6-1 1-1040)
chain: MSEQERIQDCLRKEIRSLLISTKDGLTPQQLEKEYLLMVGNHLPLRILGYRSTMELVLDMPDVVSVCPGGDGTVILKAIPDESTKGIASLVAKQRRSHKVRNSMPKGRPSICSGRVPYRGRVPPILPAVVKSELKDLLALSPVLLSDFEKAFARRFGRSFQYMQYGFLSMFEVLNAASDVISVEQTRAGSLLTLKKSVSEDKQRGWPAGKVFTQPFRMKQQGSYSTGFPVMKAHFSQPISNMEPPKQVLSMAKTPTFNSVEASRLNHTEKLNQLESTFKSVIAQIGPGGTVDPELKRKIQFVVSKFPQGLFISKLLGEFELTFKEQLSPKQLGFLNVTELVGALSDILRVEFSEERQDLLVFDADLKPLPSGGPLSSVRNSCLVQPDKKTEANPWTSSLSRNSLSTVAVKKTTWDCPLKNQKEPEQKIYKKPNLVVKPLQLQVETNKPQLSLSVANHDIPPDAVRAKKLCRLPPLDTSTLVGVFVEYIISPSQFYIRIYSRDSSELLEDMMIEMRRCYSNQLVSDRYIMPEYFIQPGHLCCVKISEDKWWYRVIIHRILGKKEVEVFYPDFGNIGTVQKSSLRFLKCCYTKLPAQAIPCSLAWVRPAEEHWTARAILHFQKLCGLKPLVGVVDEYIDGILNIFLCDTSSNEDVYFHHVLRTEGHAIVCRENAPSKGFRDFNPPALYTNASSAGDMVLTDLGHPAQQHYLNEDQEILQQAQQDINDGKCISYLKSAPKELLKDSKLSSLKTHKSCEEDPRWSILQPKDLKEENEDEVPTGMPCLESVTIGDDVWDENWLPLQAKMGKAGSPASQLFTSNLVGKKQYQTGGEMAQKDWCFSTSKDIWDDSWQPLGLANDVKGGIHTPEGPIAQEKNTSTTRIQQQPDLQYPLDSSTLPKLEEFYISLIKSQQSAERSQSEPASIQTHAGRAASKALSSTPAVGDSPENHSGSVESSPGSLKKEDVSNSRAEATAKDKSQGAIDQLSFILSPQHQISQKLYIPRSTATAVLGAAARLATSRSLLHWYPSVKGGKLEAERDGVK
